Measurements reported in PubChem BioAssay AID1259254 (NCATS, 2017)

- Purpose: 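Finding genes that stop cells copying their DNA twice in one cycle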 (primary screen)
- System: human HCT116 colorectal cancer cells
- Reagents: single siRNA against human genes
- Time to read-out: 3 days
- Measured: 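Nuclei stained with Hoechst and imaged; cell-cycle phase assigned by DNA content; G2 share scaled per plate, non-targeting siRNA 0%, GMNN siRNA 100%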
- Direction: G2 robust z-score and G2 cells, % of GMNN control: higher = more G2 cells, more excess DNA replication; raw share of cells in G2: higher = larger share of cells with G2 DNA content
- Hit rule: 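Active siRNAs have a G2 robust z of 5 or more median absolute deviations over the median, which in these data means about 38% or higher of GMNN control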
The whole screen tested about 59,000 reagents; shown is a random part of them. About 1,550 of all reagents (2.6%) count as active. 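G2 share is only a proxy for re-replication; each gene was hit by three separate siRNAs, and active genes were retested.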 Raw values are not corrected between plates. Reagents against one gene are numbered here. Reagent sequences are not shown. The record does not give: the amount of reagent.

| gene symbol | reagent no. | G2 robust z-score | G2 cells, % of GMNN control | raw share of cells in G2 (%) | Call |
| --- | --- | --- | --- | --- | --- |
| MRPL39 (GeneID 54148) | 1 | -0.917 | -3.49 | 2.46 | inactive |
| MRPL39 (GeneID 54148) | 2 | 1.09 | 10.6 | 8.16 | inactive |
| MRPL39 (GeneID 54148) | 3 | -0.588 | -1.17 | 5.42 | inactive |
| ZNF558 (GeneID 148156) | 1 | -0.618 | -1.38 | 2.62 | inactive |
| ZNF558 (GeneID 148156) | 2 | -0.528 | -0.746 | 2.91 | inactive |
| ZNF558 (GeneID 148156) | 3 | 1.7 | 14.9 | 8.76 | inactive |
| ZNF581 (GeneID 51545) | 1 | 0.055 | 3.35 | 3.98 | inactive |
| ZNF581 (GeneID 51545) | 2 | -0.235 | 1.32 | 6.5 | inactive |
| ZNF581 (GeneID 51545) | 3 | -0.968 | -3.85 | 2.42 | inactive |
| KRT1 (GeneID 3848) | 1 | 2.25 | 18.8 | 11.9 | inactive |
| KRT1 (GeneID 3848) | 2 | -1.82 | -9.85 | 1.93 | inactive |
| KRT1 (GeneID 3848) | 3 | 1.17 | 11.2 | 8.31 | inactive |
| CIBAR1 (GeneID 137392) | 1 | -0.628 | -1.45 | 2.05 | inactive |
| CIBAR1 (GeneID 137392) | 2 | -0.539 | -0.822 | 3.86 | inactive |
| CIBAR1 (GeneID 137392) | 3 | 0.061 | 3.4 | 4.18 | inactive |
| ZNF660 (GeneID 285349) | 1 | 0.541 | 6.77 | 5.42 | inactive |
| ZNF660 (GeneID 285349) | 2 | -0.706 | -2 | 2.47 | inactive |
| ZNF660 (GeneID 285349) | 3 | -0.413 | 0.0619 | 3.55 | inactive |
| HIGD1B (GeneID 51751) | 1 | -0.678 | -1.8 | 2.6 | inactive |
| HIGD1B (GeneID 51751) | 2 | -1.02 | -4.22 | 2.09 | inactive |
| HIGD1B (GeneID 51751) | 3 | -0.0175 | 2.84 | 5.47 | inactive |
| ZDHHC17 (GeneID 23390) | 1 | -0.941 | -3.65 | 4.9 | inactive |
| ZDHHC17 (GeneID 23390) | 2 | -0.394 | 0.195 | 4.22 | inactive |
| ZDHHC17 (GeneID 23390) | 3 | 7.63 | 56.6 | 23.3 | active |
| MIR1915HG (GeneID 399726) | 1 | 0.428 | 5.98 | 7.27 | inactive |
| MIR1915HG (GeneID 399726) | 2 | -0.661 | -1.69 | 3.2 | inactive |
| MIR1915HG (GeneID 399726) | 3 | 3.23 | 25.7 | 13.7 | inactive |
| FAM78B (GeneID 149297) | 1 | -0.368 | 0.376 | 3.2 | inactive |
| FAM78B (GeneID 149297) | 2 | -1.18 | -5.31 | 2.05 | inactive |
| FAM78B (GeneID 149297) | 3 | 2.78 | 22.5 | 9.87 | inactive |

In a second layout: entries from further up.
KRT1 (GeneID 3848) #3 — G2 robust z-score = 1.17; G2 cells, % of GMNN control = 11.2; raw share of cells in G2 (%) = 8.31; Call = inactive
CIBAR1 (GeneID 137392) #1 — G2 robust z-score = -0.628; G2 cells, % of GMNN control = -1.45; raw share of cells in G2 (%) = 2.05; Call = inactive
CIBAR1 (GeneID 137392) #2 — G2 robust z-score = -0.539; G2 cells, % of GMNN control = -0.822; raw share of cells in G2 (%) = 3.86; Call = inactive
